{
  "sequences": {"note": "Sequences of proteins named here, by UniProt entry; tags and fusion partners are left off. A change or cut given only in a name is not applied to a line headed by its entry.", "UniProt Q8N0Y2": "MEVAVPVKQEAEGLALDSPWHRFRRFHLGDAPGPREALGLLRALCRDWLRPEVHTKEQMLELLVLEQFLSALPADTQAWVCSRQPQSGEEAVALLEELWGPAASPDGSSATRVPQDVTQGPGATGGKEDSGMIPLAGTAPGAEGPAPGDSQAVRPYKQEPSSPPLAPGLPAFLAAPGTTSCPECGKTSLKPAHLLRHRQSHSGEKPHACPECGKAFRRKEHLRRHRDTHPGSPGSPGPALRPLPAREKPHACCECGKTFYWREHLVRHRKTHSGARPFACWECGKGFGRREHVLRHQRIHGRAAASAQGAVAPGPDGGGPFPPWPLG", "UniProt Q86VS8": "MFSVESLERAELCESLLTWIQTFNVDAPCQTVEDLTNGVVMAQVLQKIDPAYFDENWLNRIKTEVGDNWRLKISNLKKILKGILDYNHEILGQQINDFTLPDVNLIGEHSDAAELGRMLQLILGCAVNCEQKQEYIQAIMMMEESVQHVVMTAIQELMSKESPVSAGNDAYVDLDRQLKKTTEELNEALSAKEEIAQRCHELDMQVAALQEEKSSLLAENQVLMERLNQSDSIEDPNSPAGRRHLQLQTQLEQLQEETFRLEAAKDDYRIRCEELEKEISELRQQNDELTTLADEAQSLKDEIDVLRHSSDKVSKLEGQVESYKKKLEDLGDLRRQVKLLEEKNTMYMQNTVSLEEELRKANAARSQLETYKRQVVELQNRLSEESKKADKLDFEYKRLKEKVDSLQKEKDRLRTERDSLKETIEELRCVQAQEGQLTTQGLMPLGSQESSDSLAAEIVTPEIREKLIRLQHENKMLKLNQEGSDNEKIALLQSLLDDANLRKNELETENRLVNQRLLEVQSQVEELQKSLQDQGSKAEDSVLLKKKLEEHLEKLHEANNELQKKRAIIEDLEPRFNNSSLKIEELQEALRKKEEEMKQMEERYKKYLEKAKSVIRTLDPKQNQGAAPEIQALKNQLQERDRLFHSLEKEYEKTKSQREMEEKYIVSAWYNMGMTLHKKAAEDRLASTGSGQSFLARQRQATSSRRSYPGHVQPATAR", "UniProt Q8IYT2": "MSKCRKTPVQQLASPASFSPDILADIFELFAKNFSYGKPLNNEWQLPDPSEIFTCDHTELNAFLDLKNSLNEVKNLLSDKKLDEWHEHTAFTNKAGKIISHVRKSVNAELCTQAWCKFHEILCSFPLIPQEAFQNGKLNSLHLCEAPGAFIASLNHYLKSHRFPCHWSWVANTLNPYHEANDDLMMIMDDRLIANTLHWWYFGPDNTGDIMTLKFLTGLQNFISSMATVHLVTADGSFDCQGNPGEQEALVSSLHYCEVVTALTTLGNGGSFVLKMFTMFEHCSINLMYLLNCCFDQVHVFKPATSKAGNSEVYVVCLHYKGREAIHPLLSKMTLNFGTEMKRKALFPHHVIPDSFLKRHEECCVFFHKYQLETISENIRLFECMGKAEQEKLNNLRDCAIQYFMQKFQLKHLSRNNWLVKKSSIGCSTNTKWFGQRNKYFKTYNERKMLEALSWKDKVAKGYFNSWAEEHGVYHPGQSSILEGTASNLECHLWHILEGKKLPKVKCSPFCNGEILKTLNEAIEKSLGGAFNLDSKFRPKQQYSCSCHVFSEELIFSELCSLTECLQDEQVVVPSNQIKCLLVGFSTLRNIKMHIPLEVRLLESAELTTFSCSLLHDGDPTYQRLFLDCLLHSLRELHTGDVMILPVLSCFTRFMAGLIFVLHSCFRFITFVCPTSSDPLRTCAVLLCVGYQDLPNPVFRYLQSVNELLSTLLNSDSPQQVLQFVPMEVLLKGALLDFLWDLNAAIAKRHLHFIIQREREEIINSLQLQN", "UniProt Q8IY67": "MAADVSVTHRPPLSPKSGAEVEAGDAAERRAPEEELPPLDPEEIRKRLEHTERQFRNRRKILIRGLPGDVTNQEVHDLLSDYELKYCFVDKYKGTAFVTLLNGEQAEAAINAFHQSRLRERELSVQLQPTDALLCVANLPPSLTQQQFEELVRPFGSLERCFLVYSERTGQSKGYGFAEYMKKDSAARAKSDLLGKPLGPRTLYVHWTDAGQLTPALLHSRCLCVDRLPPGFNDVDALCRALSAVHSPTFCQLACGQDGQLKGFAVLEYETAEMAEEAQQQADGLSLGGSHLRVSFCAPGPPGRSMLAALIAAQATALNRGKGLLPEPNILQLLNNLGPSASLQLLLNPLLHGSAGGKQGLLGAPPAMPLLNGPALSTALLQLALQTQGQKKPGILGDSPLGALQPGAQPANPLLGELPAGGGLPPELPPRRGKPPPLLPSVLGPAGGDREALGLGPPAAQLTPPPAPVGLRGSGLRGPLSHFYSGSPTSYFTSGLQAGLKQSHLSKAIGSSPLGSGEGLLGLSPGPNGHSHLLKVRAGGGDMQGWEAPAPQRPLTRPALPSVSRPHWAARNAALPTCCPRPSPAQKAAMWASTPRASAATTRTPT", "UniProt Q8IZQ8": "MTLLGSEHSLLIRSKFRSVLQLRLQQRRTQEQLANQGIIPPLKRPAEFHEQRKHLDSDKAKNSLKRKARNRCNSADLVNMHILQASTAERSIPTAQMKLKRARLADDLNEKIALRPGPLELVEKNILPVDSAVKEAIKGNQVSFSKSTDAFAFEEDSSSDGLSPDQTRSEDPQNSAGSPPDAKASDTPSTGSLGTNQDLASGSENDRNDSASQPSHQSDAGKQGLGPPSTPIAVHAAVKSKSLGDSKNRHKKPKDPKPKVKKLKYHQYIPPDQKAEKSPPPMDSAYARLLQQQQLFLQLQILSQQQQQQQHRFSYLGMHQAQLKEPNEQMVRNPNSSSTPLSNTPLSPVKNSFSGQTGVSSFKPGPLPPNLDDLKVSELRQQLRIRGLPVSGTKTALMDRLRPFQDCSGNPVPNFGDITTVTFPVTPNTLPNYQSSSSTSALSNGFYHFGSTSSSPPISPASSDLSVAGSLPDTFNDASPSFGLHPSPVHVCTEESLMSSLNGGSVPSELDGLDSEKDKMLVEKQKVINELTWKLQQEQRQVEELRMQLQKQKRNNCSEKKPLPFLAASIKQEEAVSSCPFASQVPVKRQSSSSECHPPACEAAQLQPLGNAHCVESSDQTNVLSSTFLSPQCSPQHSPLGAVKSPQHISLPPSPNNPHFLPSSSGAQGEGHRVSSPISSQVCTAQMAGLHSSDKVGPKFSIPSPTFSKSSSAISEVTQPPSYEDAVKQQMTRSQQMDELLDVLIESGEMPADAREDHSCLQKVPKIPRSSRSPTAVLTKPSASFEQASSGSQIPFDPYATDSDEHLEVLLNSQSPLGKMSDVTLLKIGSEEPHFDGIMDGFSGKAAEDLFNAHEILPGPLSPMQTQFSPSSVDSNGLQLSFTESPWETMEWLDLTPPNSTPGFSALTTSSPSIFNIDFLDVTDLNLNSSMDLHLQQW", "UniProt Q8N163, whole entry": "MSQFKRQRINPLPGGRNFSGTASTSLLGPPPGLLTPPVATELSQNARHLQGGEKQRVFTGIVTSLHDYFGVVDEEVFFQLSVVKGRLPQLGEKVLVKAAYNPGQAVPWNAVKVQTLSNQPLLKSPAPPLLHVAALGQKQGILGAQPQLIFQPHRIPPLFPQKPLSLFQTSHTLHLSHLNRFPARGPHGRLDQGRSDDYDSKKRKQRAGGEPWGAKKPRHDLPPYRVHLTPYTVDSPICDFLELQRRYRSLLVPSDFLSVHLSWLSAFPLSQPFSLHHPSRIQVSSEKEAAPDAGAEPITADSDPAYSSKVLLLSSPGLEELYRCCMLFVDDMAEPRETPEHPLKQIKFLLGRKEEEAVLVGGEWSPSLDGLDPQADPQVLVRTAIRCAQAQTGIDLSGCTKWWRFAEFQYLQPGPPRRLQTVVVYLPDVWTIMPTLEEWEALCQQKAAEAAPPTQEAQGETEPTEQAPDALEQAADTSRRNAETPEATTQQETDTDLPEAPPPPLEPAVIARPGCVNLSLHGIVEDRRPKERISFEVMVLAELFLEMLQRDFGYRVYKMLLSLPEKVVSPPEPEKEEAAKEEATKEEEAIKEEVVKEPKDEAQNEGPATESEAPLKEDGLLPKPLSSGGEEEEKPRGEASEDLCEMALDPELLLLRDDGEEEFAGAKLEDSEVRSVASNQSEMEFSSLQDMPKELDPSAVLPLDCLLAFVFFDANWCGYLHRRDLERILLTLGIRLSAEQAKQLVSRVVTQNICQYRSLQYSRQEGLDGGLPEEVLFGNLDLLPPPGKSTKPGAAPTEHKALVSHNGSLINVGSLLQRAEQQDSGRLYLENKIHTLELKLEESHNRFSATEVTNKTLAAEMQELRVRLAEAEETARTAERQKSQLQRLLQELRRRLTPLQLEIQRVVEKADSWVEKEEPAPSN", "UniProt Q8IYB9": "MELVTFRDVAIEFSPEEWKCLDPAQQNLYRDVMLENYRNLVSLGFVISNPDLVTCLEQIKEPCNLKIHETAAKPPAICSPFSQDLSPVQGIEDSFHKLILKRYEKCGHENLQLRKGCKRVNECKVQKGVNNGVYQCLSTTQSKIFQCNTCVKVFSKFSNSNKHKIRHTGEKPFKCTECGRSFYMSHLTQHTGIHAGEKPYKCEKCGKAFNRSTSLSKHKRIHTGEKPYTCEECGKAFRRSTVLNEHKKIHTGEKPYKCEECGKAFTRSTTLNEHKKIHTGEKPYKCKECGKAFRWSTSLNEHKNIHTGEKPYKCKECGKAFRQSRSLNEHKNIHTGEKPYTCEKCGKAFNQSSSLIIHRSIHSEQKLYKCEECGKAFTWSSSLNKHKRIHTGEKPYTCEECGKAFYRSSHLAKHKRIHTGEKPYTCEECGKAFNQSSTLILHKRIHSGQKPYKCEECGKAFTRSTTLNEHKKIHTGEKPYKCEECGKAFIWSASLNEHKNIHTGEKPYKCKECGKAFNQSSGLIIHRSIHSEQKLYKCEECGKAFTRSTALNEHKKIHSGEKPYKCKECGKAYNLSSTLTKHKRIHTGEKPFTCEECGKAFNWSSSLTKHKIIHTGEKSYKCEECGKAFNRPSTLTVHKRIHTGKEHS", "UniProt Q8IXT5": "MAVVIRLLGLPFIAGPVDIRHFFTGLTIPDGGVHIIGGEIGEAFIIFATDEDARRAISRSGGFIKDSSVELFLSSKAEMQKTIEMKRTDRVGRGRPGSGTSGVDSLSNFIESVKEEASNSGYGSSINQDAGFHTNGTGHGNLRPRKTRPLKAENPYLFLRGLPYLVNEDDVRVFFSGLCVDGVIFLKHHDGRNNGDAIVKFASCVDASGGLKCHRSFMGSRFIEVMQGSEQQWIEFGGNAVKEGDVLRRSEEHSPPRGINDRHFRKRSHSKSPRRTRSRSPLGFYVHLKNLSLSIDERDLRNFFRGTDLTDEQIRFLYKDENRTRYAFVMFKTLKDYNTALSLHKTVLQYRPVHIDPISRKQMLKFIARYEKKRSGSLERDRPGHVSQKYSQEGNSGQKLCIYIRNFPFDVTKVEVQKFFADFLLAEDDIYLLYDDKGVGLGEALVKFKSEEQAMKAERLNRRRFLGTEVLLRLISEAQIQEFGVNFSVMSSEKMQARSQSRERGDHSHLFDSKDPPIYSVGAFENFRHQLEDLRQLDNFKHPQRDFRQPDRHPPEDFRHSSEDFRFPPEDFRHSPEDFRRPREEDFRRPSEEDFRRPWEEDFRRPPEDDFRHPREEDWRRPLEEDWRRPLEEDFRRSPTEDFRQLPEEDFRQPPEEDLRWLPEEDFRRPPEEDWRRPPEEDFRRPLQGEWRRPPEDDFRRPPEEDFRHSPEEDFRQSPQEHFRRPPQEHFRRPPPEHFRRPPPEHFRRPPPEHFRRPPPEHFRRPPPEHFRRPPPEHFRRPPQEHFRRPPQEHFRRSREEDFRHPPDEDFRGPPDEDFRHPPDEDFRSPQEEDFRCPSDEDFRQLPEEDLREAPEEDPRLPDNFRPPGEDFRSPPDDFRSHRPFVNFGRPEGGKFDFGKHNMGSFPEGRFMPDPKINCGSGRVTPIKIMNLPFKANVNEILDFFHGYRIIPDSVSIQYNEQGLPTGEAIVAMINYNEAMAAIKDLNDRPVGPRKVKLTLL", "UniProt Q86YP4": "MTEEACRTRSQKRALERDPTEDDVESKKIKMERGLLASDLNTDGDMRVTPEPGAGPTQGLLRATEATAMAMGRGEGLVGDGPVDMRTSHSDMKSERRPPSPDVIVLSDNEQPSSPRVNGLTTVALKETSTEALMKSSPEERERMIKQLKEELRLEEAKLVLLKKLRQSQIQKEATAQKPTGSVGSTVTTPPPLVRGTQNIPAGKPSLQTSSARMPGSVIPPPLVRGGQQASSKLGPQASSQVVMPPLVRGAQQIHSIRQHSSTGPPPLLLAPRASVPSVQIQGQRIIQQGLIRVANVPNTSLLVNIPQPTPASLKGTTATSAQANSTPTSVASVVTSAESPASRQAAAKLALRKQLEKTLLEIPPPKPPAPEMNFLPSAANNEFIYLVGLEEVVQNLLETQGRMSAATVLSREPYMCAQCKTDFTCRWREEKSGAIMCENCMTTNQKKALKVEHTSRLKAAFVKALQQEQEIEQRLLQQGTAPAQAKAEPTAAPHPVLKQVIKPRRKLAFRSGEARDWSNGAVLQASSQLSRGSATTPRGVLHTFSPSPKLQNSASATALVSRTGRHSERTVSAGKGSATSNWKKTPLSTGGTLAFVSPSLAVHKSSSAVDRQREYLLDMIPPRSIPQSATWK"},
  "source": "the supplement of paper PMC12819154",
  "about": "“High-throughput peptide-centric local stability assay extends protein–ligand identification to membrane proteins, tissues and bacteria” (Nature Structural & Molecular Biology, 2025)",
  "note": "This is one part of the list. Most entries show no effect beyond the scatter of the controls.",
  "data": [
    {"compound": "Cc1nc(Nc2ncc(C(=O)Nc3c(C)cccc3Cl)s2)cc(N2CCN(CCO)CC2)n1 [dasatinib]", "experiment": "log2 fold change of tryptic peptide abundance, ligand vs vehicle (limited proteolysis) (log2 ratio); higher = more trypsin-susceptible (destabilized)", "conditions": "ligand concentration: 5 uM; sample: K562 cleared lysate", "values": [
      {"target": "ZNF444 (peptide sequence: EKPHACCECGK, peptide start residue: 247) (UniProt Q8N0Y2)", "log2 fold change": 0.43},
      {"target": "PARP9 (peptide sequence: EIHLVSNEDPTVAAFK, peptide start residue: 274) (UniProt Q8IXQ6)", "log2 fold change": -0.956},
      {"target": "UniProt Q8N0W3 (peptide sequence: QDLSLRPLIWAAVR, peptide start residue: 566)", "log2 fold change": -0.499},
      {"target": "HOOK3 (peptide sequence: VSKLEGQVESYKK, peptide start residue: 313) (UniProt Q86VS8)", "log2 fold change": 0.381},
      {"target": "UniProt Q8IYT2 (peptide sequence: DCAIQYFMQK, peptide start residue: 398)", "log2 fold change": 0.214},
      {"target": "UniProt Q86V81 (peptide sequence: QYNGVPLDGR, peptide start residue: 165)", "log2 fold change": -0.197},
      {"target": "RAVER1 (peptide sequence: VSFCAPGPPGR, peptide start residue: 294) (UniProt Q8IY67)", "log2 fold change": -0.452},
      {"target": "UniProt Q8IZQ8 (peptide sequence: LADDLNEK, peptide start residue: 126)", "log2 fold change": 0.0554},
      {"target": "UBR1 (peptide sequence: NDEITHDKEKAER, peptide start residue: 1007) (UniProt Q8IWV7)", "log2 fold change": -1.58},
      {"target": "UniProt Q8N163 (peptide sequence: DDGEEEFAGAKLEDSEVR, peptide start residue: 657)", "log2 fold change": 0.158},
      {"target": "SFR1 (peptide sequence: NQDFTFK, peptide start residue: 7) (UniProt Q86XK3)", "log2 fold change": -0.739},
      {"target": "ZNF595 (peptide sequence: IFQCNTCVK, peptide start residue: 144) (UniProt Q8IYB9)", "log2 fold change": 0.241},
      {"target": "UniProt Q8IZL9 (peptide sequence: IADFGLAR, peptide start residue: 383)", "log2 fold change": 0.00976},
      {"target": "RASSF3 (peptide sequence: SGQQDVEK, peptide start residue: 34) (UniProt Q86WH2)", "log2 fold change": -0.432},
      {"target": "DCP2 (peptide sequence: QPLQQKPYNNHSEMSDLLK, peptide start residue: 294) (UniProt Q8IU60)", "log2 fold change": 0.58},
      {"target": "RBM12B (peptide sequence: RPLQGEWR, peptide start residue: 685) (UniProt Q8IXT5)", "log2 fold change": -0.636},
      {"target": "GATAD2A (peptide sequence: GTQNIPAGKPSLQTSSAR, peptide start residue: 196) (UniProt Q86YP4)", "log2 fold change": 0.0938}
    ]}
  ]
}
